We go through 18 compounds from patent publication US8354403B2, “Pyrrolidine derived beta 3 adrenergic receptor agonists” (Merck Sharp & Dohme Corp., priority 2009, dated 2013).

Sequences of proteins named here, by UniProt entry; tags and fusion partners are left off.
UniProt P13945, whole entry: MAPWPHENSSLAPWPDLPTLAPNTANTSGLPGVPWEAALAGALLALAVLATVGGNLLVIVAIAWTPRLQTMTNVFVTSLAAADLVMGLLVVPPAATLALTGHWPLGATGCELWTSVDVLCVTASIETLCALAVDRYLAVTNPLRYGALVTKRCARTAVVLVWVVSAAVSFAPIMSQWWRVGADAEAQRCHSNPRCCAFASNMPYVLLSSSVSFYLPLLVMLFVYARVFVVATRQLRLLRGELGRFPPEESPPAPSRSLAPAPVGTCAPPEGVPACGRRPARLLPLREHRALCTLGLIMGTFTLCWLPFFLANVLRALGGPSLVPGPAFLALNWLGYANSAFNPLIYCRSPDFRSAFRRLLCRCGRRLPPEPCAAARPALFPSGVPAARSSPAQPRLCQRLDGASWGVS

Structures were worked out from names or drawings and are uncertain.

The target in the first assay is human β3 adrenergic receptor (Homo sapiens, UniProt P13945). Kind of assay: Beta-3 agonist in vitro functional assay: cAMP production (LANCE TR-FRET) in CHO cells stably transfected with the cloned β3 receptor. Format: cell-based. Conditions: read-out: Human β3 agonist functional activity; Table 4; cAMP, CHO cells. In general terms: Changes in cAMP serve as a functional read-out for many G protein-coupled receptors.
For the compound `O=C(c1ccc(C[C@@H]2CC[C@H]([C@H](O)c3ccccc3)N2)cc1)N1CC=CC(n2ccnn2)C1` (stereo partly drawn), the EC50 was in the range of 100 to 999 nM.
With `O=C(c1ccc(C[C@@H]2CC[C@H]([C@H](O)c3ccccc3)N2)cc1)N1CC=CC(n2nccn2)C1` (stereo partly drawn), the EC50 was 100 to 999 nM.
For `O=C(c1ccc(C[C@@H]2CC[C@H]([C@H](O)c3ccccc3)N2)cc1)N1CCCC2(CC3CCCCN3C2=O)C1` (stereo partly drawn), the EC50 lay in the range of 100 to 999 nM.
For `O=C(c1ccc(C[C@@H]2CC[C@H]([C@H](O)c3ccccc3)N2)cc1)N1CCCC(S(=O)(=O)c2ccc(Br)cc2)C1` (stereo partly drawn), the EC50 is 10 to 99.9 nM.
With `O=C(c1ccc(C[C@@H]2CC[C@H]([C@H](O)c3ccccc3)N2)cc1)N1CCC(n2cccn2)C1` (stereo partly drawn), the EC50 fell in the range of 100 to 999 nM.

The same assay, now with this note: read-out: Human β3 agonist functional activity; Table 5; cAMP, CHO cells.
Consider `O=C(c1ccc(C[C@@H]2CC[C@H]([C@H](O)c3ccccc3)N2)cc1)N1CCC(n2nccn2)CC1`, for which the EC50 lay within 100 to 999 nM.
For `Cc1ccc(S(=O)(=O)C2CCN(C(=O)c3ccc(C[C@@H]4CC[C@H]([C@H](O)c5ccccc5)N4)cc3)CC2)cc1`, the EC50 fell in the range of 1 to 9.9 nM.
Turning to `O=C(c1ccc(C[C@@H]2CC[C@H]([C@H](O)c3ccccc3)N2)cc1)N1CCC(c2nc3ccccc3[nH]2)CC1`, the EC50 fell in the range of 100 to 999 nM.
For the compound `CC(C)n1nnc(C2CCN(C(=O)c3ccc(C[C@@H]4CC[C@H]([C@H](O)c5ccccc5)N4)cc3)CC2)n1`, the EC50 lay within 10 to 99.9 nM.

The same assay, now with this note: read-out: Human β3 agonist functional activity; Table 6; cAMP, CHO cells.
For `Cn1nnc([C@H]2[C@@H]3CN(C(=O)c4ccc(C[C@@H]5CC[C@H]([C@H](O)c6ccccc6)N5)cc4)C[C@@H]32)n1`, the EC50 lay within 1 to 9.9 nM.
Still for that read-out and setting: then `CC(C)n1ncc([C@H]2[C@@H]3CN(C(=O)c4ccc(C[C@@H]5CC[C@H]([C@H](O)c6ccccc6)N5)cc4)C[C@@H]32)n1`, with 10 to 99.9 nM.

Still in this assay, the particulars now being: read-out: Human β3 agonist functional activity; Table 8; Beta-3 agonist in vitro functional assay.
For `O=C1OC2(CCN(C(=O)c3ccc(C[C@@H]4CC[C@H]([C@H](O)c5ccccc5)N4)cc3)CC2)CC1c1ccccc1` (stereo partly drawn), the EC50 fell in the range of 10 to 99.9 nM.
In the case of `CC(C)(C)N1CCC2(CCN(C(=O)c3ccc(C[C@@H]4CC[C@H]([C@H](O)c5cccnc5)N4)cc3)CC2)C1=O`, the EC50 is 100 to 999 nM.

The assay is the same for the next values; noted with them: read-out: Human β3 agonist functional activity; Table 9; Beta-3 agonist in vitro functional assay.
Consider `O=C(c1ccc(C[C@@H]2CC[C@H]([C@H](O)c3ccccc3)N2)cc1)N1CCN(c2ccc(F)cc2)CC1`, for which the EC50 is 100 to 999 nM.
Still for that read-out and setting: with `O=C(c1ccc(C[C@@H]2CC[C@H]([C@H](O)c3ccccc3)N2)cc1)N1CCN(Cc2ccn(-c3ccccn3)n2)CC1` the figure was 1 to 9.9 nM.

Still in this assay, the particulars now being: read-out: Human β3 agonist functional activity; Table 12; human β3 functional activity given as ranges.
On to `CC(c1cscn1)N1CCN(C(=O)c2ccc(C[C@@H]3CC[C@H]([C@H](O)c4ccccc4)N3)cc2)CC1` (single isomer, unassigned), for which the EC50 fell in the range of 1 to 9.9 nM.
With `O=C(c1ccc(C[C@@H]2CC[C@H]([C@H](O)c3ccccc3)N2)cc1)N1CCN(C2COc3cccnc32)CC1` (single isomer, unassigned), the EC50 was 1 to 9.9 nM.
On to `CC(c1ncc2ccccc2n1)N1CCN(C(=O)c2ccc(C[C@@H]3CC[C@H]([C@H](O)c4ccccc4)N3)cc2)CC1` (single isomer, unassigned), for which the EC50 lay in the range of 1 to 9.9 nM.
